In PubChem BioAssay AID1508600 (Functional Genomics Laboratory (NCATS/FGL), 2020):
Hit rate of the full screen: of about 53,000 sequences, about 3,700 (7%) were called active.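 How the source made its calls: active means gene knockdowns whose robust z-score for IL-1 alpha signal is at least 2 or at most -2, so actives lie on both sides; inactive means the rest.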 Some of the results follow.

assay: Components of the Cytosolic LPS Sensing Pathway: Gene Identification via Genome-wide siRNA Screen; settings: RAW264.7 macrophages, IL-1a HTRF, actives lie on both sides, screened at 100 nM (by protocol), cells primed 5 h with Pam3CSK4 first;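 further: robust z of the log signal after scaling to non-targeting control siRNA wells of the plate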
Method in brief: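 Three distinct siRNAs per gene were tested singly at 100 nM in RAW264.7 macrophages. Following Pam3CSK4 priming and 24 hour LipidA transfection, IL-1a secretion was read by HTRF.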

Sequence	z-score
GCUCAUUUGUUUCCAAUAATT against Maf1	inactive: -0.713
GGAGUCCACUAAAGUCCUATT against Fmnl3	inactive: 0.409
GUACACUCAGGCUGAGGGUTT against Acyp1	inactive: 0.0397
GCGCGCUAAAAUGGAUGGCTT against Kng2	inactive: -0.19
GGCCAUCAGAUAAAAGUUGTT against Sgsm1	inactive: -0.383
GCGAAAGACGAUCAAAACCTT against Scn1a	inactive: 0.841
CGGAGUUGGAUGUUAUUCUTT against Cenpu	inactive: 0.0358
GGAAAUAUUACCUUUGUACTT against Sp3	inactive: -0.762
GGUCAUGAACUUCACAAUUTT against Sgcd	inactive: 0.513
GCUAUAUAAAGGCUGAGUATT against Emilin3	inactive: -0.128
CCUUAUCUAUAACUCUGCUTT against Tirap	inactive: -0.772
GCCGCUAGCAUGGUCUAUUTT against Apoa5	active: 2.51
CCACAGGGACAACAAACUATT against Arid3b	inactive: 0.0513
GCUGGUAUUUAAUAGAGGATT against Nkap	inactive: 0.535
CGUGAAGAUGACCGAUGAUTT against Rpl10a	inactive: -0.347
CGGGCUCACAGUUUCUACUTT against Ethe1	inactive: -0.648
CGCGAUCAUAGAUUGGGCUTT against Sec61b	inactive: -0.624
CGCAUUACUAUCACCAAAGTT against Samd4	inactive: -0.482
GGAACAAAGAUGUGUCUGGTT against Olfr31	inactive: 0.0504
UGUGGUGAACCCAAUGCACTT against Klk1b22	active: -3.28
GGCUCAGAUCAAGCCAAAGTT against Cldn10	inactive: -1.13
GCUUUUAUGCCACAAAUGATT against Pon1	inactive: 0.155

Sequence	z-score
GGAAAAAGCCAACAAUUUGTT against Spats1	inactive: 1.62
GGGCAUCAAACCUACUGUCTT against Prrc2a	inactive: -1.8
GGUGCCUUGGGAAAAAGGATT against Ttc27	inactive: 0.719
GGCAGUAGAUGAAAAUAAATT against Nphp1	inactive: 0.929
CGCAGGUAAUUUGUUUGUGTT against Mtnr1b	inactive: 1.16
GGAGGAAGAUGACCUCAUCTT against Crlf2	inactive: -0.212
GCACCGGAUUGAUUUUGUCTT against Pcyt1a	inactive: 0.0188
GCUAACCCUCGUUUAGAAGTT against Apol9b	inactive: 0.529
GGAGAUAAUCCUGAAUGGCTT against Hsd3b6	inactive: -1.18
GGUGAAGUGUGUCAGUCUGTT against Orc6	inactive: -0.551
GGUCUUUCAAGAGUUGAAATT against Fam98a	inactive: 1.49
GCGGUCUUUCUUUCUUCGATT against Sim2	inactive: -1.42
GGAGAUUGGAAGAAGAAAATT against Sash1	inactive: 0.0734
CCUCCAGAUAAGAAUGUGCTT against Fnip1	inactive: -1.34
GCCUCUGUAUGUCAUAUUGTT against Zfp345	inactive: 1.12
GGAGAACUAUUUCUUCAUCTT against Paf1	inactive: 1.03
GCCAUUUUGCGUGUGGCACTT against Sgsm3	inactive: 0.507
GGUAGUAGGGAACCAUAAATT against Zfp563	inactive: -0.0657
GGACCAUGUGAUAAUAUCGTT against Als2	inactive: -0.599
GCUUAUACACAGUACAGAATT against M1ap	inactive: 0.876
CCAGUUUUCGACACAAUUCTT against Cma1	inactive: 0.645
GGGAGACCCAAUGUCAUCATT against Dtx3	inactive: -1.25

Reprinted from the entries so far (30 entries):
Sequence	z-score
GCUAUAUAAAGGCUGAGUATT against Emilin3	inactive: -0.128
CCUUAUCUAUAACUCUGCUTT against Tirap	inactive: -0.772
GCCGCUAGCAUGGUCUAUUTT against Apoa5	active: 2.51
CCACAGGGACAACAAACUATT against Arid3b	inactive: 0.0513
GCUGGUAUUUAAUAGAGGATT against Nkap	inactive: 0.535
CGUGAAGAUGACCGAUGAUTT against Rpl10a	inactive: -0.347
CGGGCUCACAGUUUCUACUTT against Ethe1	inactive: -0.648
CGCGAUCAUAGAUUGGGCUTT against Sec61b	inactive: -0.624
CGCAUUACUAUCACCAAAGTT against Samd4	inactive: -0.482
GGAACAAAGAUGUGUCUGGTT against Olfr31	inactive: 0.0504
UGUGGUGAACCCAAUGCACTT against Klk1b22	active: -3.28
GGCUCAGAUCAAGCCAAAGTT against Cldn10	inactive: -1.13
GCUUUUAUGCCACAAAUGATT against Pon1	inactive: 0.155
GGAAAAAGCCAACAAUUUGTT against Spats1	inactive: 1.62
GGGCAUCAAACCUACUGUCTT against Prrc2a	inactive: -1.8
GGUGCCUUGGGAAAAAGGATT against Ttc27	inactive: 0.719
GGCAGUAGAUGAAAAUAAATT against Nphp1	inactive: 0.929
CGCAGGUAAUUUGUUUGUGTT against Mtnr1b	inactive: 1.16
GGAGGAAGAUGACCUCAUCTT against Crlf2	inactive: -0.212
GCACCGGAUUGAUUUUGUCTT against Pcyt1a	inactive: 0.0188
GCUAACCCUCGUUUAGAAGTT against Apol9b	inactive: 0.529
GGAGAUAAUCCUGAAUGGCTT against Hsd3b6	inactive: -1.18
GGUGAAGUGUGUCAGUCUGTT against Orc6	inactive: -0.551
GGUCUUUCAAGAGUUGAAATT against Fam98a	inactive: 1.49
GCGGUCUUUCUUUCUUCGATT against Sim2	inactive: -1.42
GGAGAUUGGAAGAAGAAAATT against Sash1	inactive: 0.0734
CCUCCAGAUAAGAAUGUGCTT against Fnip1	inactive: -1.34
GCCUCUGUAUGUCAUAUUGTT against Zfp345	inactive: 1.12
GGAGAACUAUUUCUUCAUCTT against Paf1	inactive: 1.03
GCCAUUUUGCGUGUGGCACTT against Sgsm3	inactive: 0.507

(listing goes on)

Sequence	z-score
GGAUUUUAAAAUUCCCAGUTT against Usp33	inactive: -0.593
GGUUGUCAAGGCUGCUCAUTT against Gpihbp1	inactive: 0.0129
GGCAAGAGUGUUUUCAUACTT against Insl6	inactive: 0.26
GCCCUGUUUUGAUCCAUGCTT against Slitrk3	inactive: 0.635
GGAGAUGGAUCACUUAAAUTT against Cdh6	inactive: 0.942
CCAGGAUCAAAGAACUUAUTT against Olfr1424	active: -3.39
GGACAGUCAAAAAUUGUUCTT against Cyp7b1	inactive: 0.416
GCAACAUUGUAGAUUGAUATT against Fam32a	inactive: -0.879
GGAACUGAUAUCAUGUACATT against Slc25a5	active: 2.15
GCACUGUCGCAUCAUCAGATT against D230025D16Rik	inactive: 1.83
GGGAUGAAGUCCUGGAUAATT against Atp6v1g1	inactive: -0.953
GGAUCCUGAACAUAUGAAUTT against Chst14	inactive: -0.179
GCAGAUCAACAAAUAGGAUTT against Sft2d1	inactive: 0.897
CCUAAUCUUCGUGCUUUACTT against Minpp1	inactive: 1.4
GCUUAUCGUAAAGUAGCACTT against Dnajb7	inactive: 0.0708
GGGAAACUCGAGAUGUGCATT against Ankmy2	inactive: 0.944
GGACUCCCUGAAGUAGUGATT against Vmn1r226	inactive: -0.24
CCAGAUUUCCUGCAUGGCUTT against Tmem223	inactive: -0.695
GGUCACGAACAUUUUUGCUTT against Tmem167b	inactive: -1.94
GCUAUUUUCAUACAUUCCCTT against Tspoap1	inactive: 0.144
GGCGAAAAAAGCUAAGCAGTT against Trmt10c	inactive: -1.26
GGUUGCUCAGAUUCAGAAUTT against Isy1	inactive: -1.53

Sequence	z-score
GCAACUGGCUGAACUCUCATT against Gsdmc2	active: 3.91
GGAAUCAUUAAAACUCUCCTT against Ccr3	inactive: 1.22
CCGUUGGAGGUAAUUAGGATT against Dot1l	inactive: 0.463
CCAGAAUUUGUGAAAUCCGTT against Dner	inactive: -1.96
GGAGUGUUUAAAAGAGAAGTT against Mns1	inactive: -0.588
GGACAUGUGGAAAUGGAUATT against Arhgap4	inactive: 1.97
GCCCAACCUAGAUGAACCUTT against Tmem252	inactive: 0.377
GCCAAUAGCUCCAGCUUGATT against Olfr668	inactive: 0.534
GGACACCUGAAGUUAGUUUTT against Ndufaf1	inactive: 0.622
GGGCAGGAUUGUCUGUUUATT against Pdrg1	inactive: -1.33
GGUGUUGGAGCAGCUCACATT against Rpl11	inactive: 0.823
GGGAGAAAUGCCUUUAGUCTT against Erfe	active: 3.79
CGGGUAACUACUAGGAAGGTT against Tex37	inactive: -0.64
CCUUGUAGCUCUUUAUAAATT against Strn	active: 2.24
CCUGAGGAACUCCAACCAATT against Ltbp4	inactive: -0.651
GGCAGCAAGACAACUUUUGTT against Foxp2	inactive: -0.0973
CGCUUCAUGACUUCUGAAUTT against Ppp1r32	inactive: 0.0722
GGAUUUGGGACUAAUUACGTT against Hsd17b7	inactive: 1.02
GGAAUACCAGGAAAAUAGUTT against Chm	inactive: 0.495
GGUGGAAAGUAUCGUUGACTT against Cdyl	inactive: 0.188
GGUGGUUUAAAAAACUGCUTT against Faah	inactive: 0.681
GGUUACAAACAUUUGUGAATT against Prph2	inactive: 0.0977

Sequence	z-score
GGGUUUCUUGUUUCUUAGATT against Aldh6a1	inactive: -0.00669
GGAUUCUAUGACAAAGACATT against Ddx3x	inactive: 1.84
GGCUAAAAUCCAUGACAUUTT against Hspa1l	inactive: -0.211
GGGACAACAUUUUCUUGCCTT against Ms4a6b	inactive: -0.0956
GGAGAGGAACAGGAACAGATT against Ankrd9	inactive: 0.557
GGGACAACAUCCCGUCAUATT against Zfp809	inactive: 0.281
GCUGAUUCAAAACCAGGCATT against Nme2	inactive: -1.57
GGUUUCCUAGAGAGUAAAATT against Tctn3	inactive: -0.215
CCAUGAGCAUAGUUAUCAGTT against Ankib1	inactive: -0.000982
GGAUUUCGUGUGGAUGAAATT against Haus4	inactive: -0.957
GGCUUUGAAACAUAAGAACTT against Zfp472	inactive: -0.553
GCGAUUACUACUUGAAACUTT against Fa2h	inactive: -0.384
CGGCAGCUUGAAAUUACUGTT against Stx3	inactive: 1.66
CCCAUAGACAUUUAUGUAATT against D17H6S56E-5	inactive: -0.235
GGAAGCCAAAGAGAAACAATT against Ighmbp2	inactive: -0.0223
GGAUGUGGUUUUACAUCUGTT against Lrp11	inactive: -0.258
GGAGGUACCAUGCUAUGCATT against Igf2r	inactive: -0.917
GGGCUUGGCAUACUCCUAATT against Ebf4	inactive: 0.134
CGUGCAUCCCUAUAUCCUATT against Panx2	inactive: 0.343
